# Results reported in the supplement of paper PMC11732987, “Enantioselective OTUD7B fragment discovery through chemoproteomics screening and high-throughput optimisation” (Communications Chemistry, 2025).
# This is one part of the list. The data scatter; read single values as rough.
# Target: T1, PER1 C590 (UniProt O15534)
# T1 sequence (whole entry): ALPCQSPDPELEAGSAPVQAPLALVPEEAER
# Test: log2 mean competition ratio of IA-DTB cysteine labelling (DMSO/compound) (log2 ratio); higher = stronger cysteine engagement by compound
# Settings: 50 µM; treatment time: 4 h; cell line lysate: HEK293T
# Method: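 IA-DTB competitive cysteine chemoproteomics in HEK293T RIPA lysate. Lysates were treated with compound 29 or 30 at 50 or 200 µM for 4 h, then IA-DTB (500 µM, 1 h), trypsin-digested, NeutrAvidin-enriched and analysed by diaPASEF. Competition ratio = intensity DMSO / intensity compound (n=4 treated, n=64 DMSO); binding: mean log2 CR ≥ 1 and p ≤ 0.05 plus QC filters. Target is the cysteine site.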
row,SMILES,log2 mean competition ratio
1,O=C(CCl)N[C@@H]1CCCc2ccccc21,-0.44
2,O=C(CCl)N[C@H]1CCCc2ccccc21,0.202

# Same assay, conditions: 200 µM; treatment time: 4 h; cell line lysate: HEK293T
row,SMILES,log2 mean competition ratio
1,O=C(CCl)N[C@@H]1CCCc2ccccc21,-0.425
2,O=C(CCl)N[C@H]1CCCc2ccccc21,-0.497
